Test results published in publication PMC6341703.
Results are given in words; binding and its absence hold for the method and conditions named. Binding seen in cells or lysates may run through a third protein. Some results given as binding are weak or reduced against the parent protein; the word gives no strength. For some assays here: Tags and fused reporters may be left off the sequences shown.

Chains of the proteins cited; added tags and fusions are not shown.
UniProt Q8TEW0: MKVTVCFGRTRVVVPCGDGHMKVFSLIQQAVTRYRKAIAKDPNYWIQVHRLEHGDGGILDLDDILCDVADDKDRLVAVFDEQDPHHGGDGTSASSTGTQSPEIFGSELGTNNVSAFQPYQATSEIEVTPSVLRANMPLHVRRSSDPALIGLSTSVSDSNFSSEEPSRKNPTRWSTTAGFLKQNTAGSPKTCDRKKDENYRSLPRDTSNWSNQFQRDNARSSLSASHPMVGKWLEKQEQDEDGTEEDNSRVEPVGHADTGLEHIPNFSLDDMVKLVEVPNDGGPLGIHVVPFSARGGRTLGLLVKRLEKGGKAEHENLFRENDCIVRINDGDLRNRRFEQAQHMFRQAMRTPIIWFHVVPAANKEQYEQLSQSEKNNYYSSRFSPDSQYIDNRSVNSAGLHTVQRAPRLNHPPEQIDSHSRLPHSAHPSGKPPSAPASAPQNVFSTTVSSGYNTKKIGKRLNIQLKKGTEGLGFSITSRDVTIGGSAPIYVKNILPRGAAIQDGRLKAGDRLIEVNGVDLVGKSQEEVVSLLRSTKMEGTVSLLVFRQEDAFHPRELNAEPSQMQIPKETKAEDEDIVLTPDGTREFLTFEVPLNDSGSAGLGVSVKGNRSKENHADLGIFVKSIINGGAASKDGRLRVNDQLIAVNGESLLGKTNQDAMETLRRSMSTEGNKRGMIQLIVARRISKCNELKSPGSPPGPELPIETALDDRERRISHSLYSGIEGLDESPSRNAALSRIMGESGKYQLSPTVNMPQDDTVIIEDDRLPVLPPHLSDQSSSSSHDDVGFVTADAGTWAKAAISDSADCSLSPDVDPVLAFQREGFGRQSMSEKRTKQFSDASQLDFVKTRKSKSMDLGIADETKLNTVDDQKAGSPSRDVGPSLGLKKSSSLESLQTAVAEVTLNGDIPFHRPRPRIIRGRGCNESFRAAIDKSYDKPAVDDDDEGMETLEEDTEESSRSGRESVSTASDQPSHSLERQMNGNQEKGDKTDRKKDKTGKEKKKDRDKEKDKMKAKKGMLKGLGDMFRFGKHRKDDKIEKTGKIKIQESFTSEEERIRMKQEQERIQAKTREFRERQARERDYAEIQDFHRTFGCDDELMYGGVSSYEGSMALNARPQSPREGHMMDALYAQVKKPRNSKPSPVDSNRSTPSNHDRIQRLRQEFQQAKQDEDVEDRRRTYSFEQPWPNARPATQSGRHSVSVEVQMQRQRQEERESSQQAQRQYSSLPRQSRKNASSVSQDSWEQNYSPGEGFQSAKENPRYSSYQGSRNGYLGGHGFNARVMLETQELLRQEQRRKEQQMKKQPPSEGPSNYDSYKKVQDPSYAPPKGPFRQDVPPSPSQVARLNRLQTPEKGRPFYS
UniProt Q7KZI7: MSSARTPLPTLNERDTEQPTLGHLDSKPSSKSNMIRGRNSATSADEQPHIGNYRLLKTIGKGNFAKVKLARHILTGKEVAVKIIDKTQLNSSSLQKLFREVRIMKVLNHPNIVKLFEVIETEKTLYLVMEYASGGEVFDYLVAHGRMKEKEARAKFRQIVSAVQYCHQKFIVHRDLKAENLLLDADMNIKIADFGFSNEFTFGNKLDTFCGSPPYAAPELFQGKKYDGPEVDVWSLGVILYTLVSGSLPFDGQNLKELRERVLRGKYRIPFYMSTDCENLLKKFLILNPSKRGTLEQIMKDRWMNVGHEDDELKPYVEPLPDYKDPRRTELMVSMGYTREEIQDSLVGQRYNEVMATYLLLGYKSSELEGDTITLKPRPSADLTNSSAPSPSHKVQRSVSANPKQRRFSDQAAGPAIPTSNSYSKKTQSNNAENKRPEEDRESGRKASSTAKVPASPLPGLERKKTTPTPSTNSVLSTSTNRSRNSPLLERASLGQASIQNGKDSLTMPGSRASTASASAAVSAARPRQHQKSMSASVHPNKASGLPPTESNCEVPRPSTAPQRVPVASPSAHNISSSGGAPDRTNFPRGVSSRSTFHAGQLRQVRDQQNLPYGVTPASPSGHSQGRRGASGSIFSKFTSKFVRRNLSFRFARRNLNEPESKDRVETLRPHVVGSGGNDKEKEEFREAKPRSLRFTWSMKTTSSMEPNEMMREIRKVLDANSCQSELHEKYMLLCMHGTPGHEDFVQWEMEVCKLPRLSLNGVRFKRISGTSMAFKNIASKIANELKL

Tests used:
[1] = molecular target: T1, Gab1MT1, Par1b binding domain (152-250aa) deletion mutant of Gab1 (human (from the printed RefSeq NM_207123.2)) (UniProt Q13480); assay: co-IP; whole cell lysates of 231-shGab1 (Gab1 knockdown) subclones re-expressing Gab1WT, Gab1MT1, Gab1MT2 or vector; lysis buffer 50 mM Tris pH 7.5, 120 mM NaCl, 0.5% NP-40, 5 mM EDTA; protein G-sepharose; blot
T1 sequence: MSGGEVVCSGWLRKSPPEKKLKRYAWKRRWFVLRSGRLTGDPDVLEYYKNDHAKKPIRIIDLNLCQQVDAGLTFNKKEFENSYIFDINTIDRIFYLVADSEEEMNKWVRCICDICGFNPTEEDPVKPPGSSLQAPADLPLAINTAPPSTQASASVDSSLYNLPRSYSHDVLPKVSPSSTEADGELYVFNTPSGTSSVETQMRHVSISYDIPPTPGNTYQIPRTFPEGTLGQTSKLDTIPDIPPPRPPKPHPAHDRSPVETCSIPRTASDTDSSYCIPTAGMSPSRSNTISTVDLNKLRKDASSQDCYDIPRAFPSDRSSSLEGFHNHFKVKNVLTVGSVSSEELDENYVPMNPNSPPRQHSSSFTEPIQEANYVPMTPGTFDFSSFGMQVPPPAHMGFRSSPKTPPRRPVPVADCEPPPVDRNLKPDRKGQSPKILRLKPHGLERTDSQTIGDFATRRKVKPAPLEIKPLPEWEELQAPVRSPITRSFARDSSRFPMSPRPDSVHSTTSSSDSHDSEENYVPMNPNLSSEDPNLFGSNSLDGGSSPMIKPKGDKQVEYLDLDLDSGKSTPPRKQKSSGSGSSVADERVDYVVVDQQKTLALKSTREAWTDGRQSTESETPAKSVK

[2] = molecular target: T2, Gab1WT, fully functional Gab1 expressed from a lentiviral vector (synonymous mutation of Gab1 for antagonist of Gab1 shRNAs) (human (from the printed RefSeq NM_207123.2)) (UniProt Q13480); assay: as above
T2 sequence: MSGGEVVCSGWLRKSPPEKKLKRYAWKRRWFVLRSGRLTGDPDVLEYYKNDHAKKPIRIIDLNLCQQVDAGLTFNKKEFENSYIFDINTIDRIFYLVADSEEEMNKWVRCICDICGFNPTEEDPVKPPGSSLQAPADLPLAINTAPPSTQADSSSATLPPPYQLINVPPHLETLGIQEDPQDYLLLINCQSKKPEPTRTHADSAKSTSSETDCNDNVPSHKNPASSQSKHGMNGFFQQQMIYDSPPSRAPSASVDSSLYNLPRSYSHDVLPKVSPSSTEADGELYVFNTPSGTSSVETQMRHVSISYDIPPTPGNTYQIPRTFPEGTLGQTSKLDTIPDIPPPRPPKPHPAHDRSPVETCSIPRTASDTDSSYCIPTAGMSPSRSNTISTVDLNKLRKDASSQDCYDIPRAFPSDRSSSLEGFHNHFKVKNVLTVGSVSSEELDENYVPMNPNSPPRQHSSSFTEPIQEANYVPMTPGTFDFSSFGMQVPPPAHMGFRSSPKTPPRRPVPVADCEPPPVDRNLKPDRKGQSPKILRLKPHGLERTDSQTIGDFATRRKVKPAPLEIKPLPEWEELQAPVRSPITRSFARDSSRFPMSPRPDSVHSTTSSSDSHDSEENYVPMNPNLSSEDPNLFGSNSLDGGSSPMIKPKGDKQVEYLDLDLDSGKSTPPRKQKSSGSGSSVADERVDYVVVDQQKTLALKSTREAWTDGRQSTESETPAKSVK

[3] = molecular target: T2, Gab1WT, fully functional Gab1 expressed from a lentiviral vector (synonymous mutation of Gab1 for antagonist of Gab1 shRNAs) (human (from the printed RefSeq NM_207123.2)); assay: co-IP; whole cell lysates of MDA-MB-231 and SK-BR3 subclones stably overexpressing Gab1 (231-Gab1OE, SK-Gab1OE) against vector controls; lysis buffer 50 mM Tris pH 7.5, 120 mM NaCl, 0.5% NP-40, 5 mM EDTA; protein G-sepharose; blot
[4] = molecular target: T3, Grb2-associated binding protein 1 (Gab1), endogenous (human (endogenous in MDA-MB-231 and SK-BR3)) (UniProt Q13480); assay: co-IP; endogenous proteins; whole cell lysates of MDA-MB-231 and SK-BR3 (also after stable Gab1 knockdown, shRNA#2); lysis buffer 50 mM Tris pH 7.5, 120 mM NaCl, 0.5% NP-40, 5 mM EDTA; 500 ug protein with 5 ug antibody at 4 C overnight, protein G-sepharose; blot
T3 sequence: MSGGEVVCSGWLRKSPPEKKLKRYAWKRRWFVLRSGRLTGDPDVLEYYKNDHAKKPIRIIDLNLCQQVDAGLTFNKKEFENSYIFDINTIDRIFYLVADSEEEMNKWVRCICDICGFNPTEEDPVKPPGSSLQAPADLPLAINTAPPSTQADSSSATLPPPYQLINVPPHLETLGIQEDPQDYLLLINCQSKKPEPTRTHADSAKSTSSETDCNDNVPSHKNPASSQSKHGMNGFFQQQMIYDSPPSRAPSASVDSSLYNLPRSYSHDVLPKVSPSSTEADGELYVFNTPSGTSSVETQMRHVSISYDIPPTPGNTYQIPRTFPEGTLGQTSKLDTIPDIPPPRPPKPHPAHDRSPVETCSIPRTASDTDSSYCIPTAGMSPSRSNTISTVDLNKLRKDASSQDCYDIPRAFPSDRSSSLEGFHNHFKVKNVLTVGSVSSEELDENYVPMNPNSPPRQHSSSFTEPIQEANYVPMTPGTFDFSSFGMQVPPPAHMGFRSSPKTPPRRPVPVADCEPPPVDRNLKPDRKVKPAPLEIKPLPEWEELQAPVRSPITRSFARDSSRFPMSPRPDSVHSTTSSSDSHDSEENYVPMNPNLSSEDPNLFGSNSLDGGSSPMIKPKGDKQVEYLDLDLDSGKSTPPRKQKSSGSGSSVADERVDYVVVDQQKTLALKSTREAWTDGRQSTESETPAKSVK

[5] = molecular target: Par3, endogenous (human (endogenous in MDA-MB-231 and SK-BR3)) (UniProt Q8TEW0); assay: co-IP; whole cell lysates of 231-shGab1 (Gab1 knockdown) subclones re-expressing Gab1WT, Gab1MT1, Gab1MT2 or vector; lysis buffer 50 mM Tris pH 7.5, 120 mM NaCl, 0.5% NP-40, 5 mM EDTA; protein G-sepharose; blot
[6] = molecular target: Par3, endogenous (human (endogenous in MDA-MB-231 and SK-BR3)) (UniProt Q8TEW0); assay: co-IP; whole cell lysates of MDA-MB-231 and SK-BR3 subclones stably overexpressing Gab1 (231-Gab1OE, SK-Gab1OE) against vector controls; lysis buffer 50 mM Tris pH 7.5, 120 mM NaCl, 0.5% NP-40, 5 mM EDTA; protein G-sepharose; blot
[7] = molecular target: Par3, endogenous (human (endogenous in MDA-MB-231 and SK-BR3)) (UniProt Q8TEW0); assay: co-IP; endogenous proteins; whole cell lysates of MDA-MB-231 and SK-BR3 (also after stable Gab1 knockdown, shRNA#2); lysis buffer 50 mM Tris pH 7.5, 120 mM NaCl, 0.5% NP-40, 5 mM EDTA; 500 ug protein with 5 ug antibody at 4 C overnight, protein G-sepharose; blot

Par1b, endogenous (from UniProt Q7KZI7 1-788)
binding [1]: binds weakly
binding [2]: binds
binding [3]: binds
binding [4]: binds

B1: Gab1MT2, Par3 binding domain (301-400aa) deletion mutant of Gab1 (protein, UniProt Q13480-2)
chain: MSGGEVVCSGWLRKSPPEKKLKRYAWKRRWFVLRSGRLTGDPDVLEYYKNDHAKKPIRIIDLNLCQQVDAGLTFNKKEFENSYIFDINTIDRIFYLVADSEEEMNKWVRCICDICGFNPTEEDPVKPPGSSLQAPADLPLAINTAPPSTQADSSSATLPPPYQLINVPPHLETLGIQEDPQDYLLLINCQSKKPEPTRTHADSAKSTSSETDCNDNVPSHKNPASSQSKHGMNGFFQQQMIYDSPPSRAPSASVDSSLYNLPRSYSHDVLPKVSPSSTEADGELYVFNTPSGTSSVETQMSSQDCYDIPRAFPSDRSSSLEGFHNHFKVKNVLTVGSVSSEELDENYVPMNPNSPPRQHSSSFTEPIQEANYVPMTPGTFDFSSFGMQVPPPAHMGFRSSPKTPPRRPVPVADCEPPPVDRNLKPDRKGQSPKILRLKPHGLERTDSQTIGDFATRRKVKPAPLEIKPLPEWEELQAPVRSPITRSFARDSSRFPMSPRPDSVHSTTSSSDSHDSEENYVPMNPNLSSEDPNLFGSNSLDGGSSPMIKPKGDKQVEYLDLDLDSGKSTPPRKQKSSGSGSSVADERVDYVVVDQQKTLALKSTREAWTDGRQSTESETPAKSVK
binding [5]: binds weakly

B2: Gab1WT, fully functional Gab1 expressed from a lentiviral vector (synonymous mutation of Gab1 for antagonist of Gab1 shRNAs) (protein, UniProt Q13480-2 1-724)
chain: MSGGEVVCSGWLRKSPPEKKLKRYAWKRRWFVLRSGRLTGDPDVLEYYKNDHAKKPIRIIDLNLCQQVDAGLTFNKKEFENSYIFDINTIDRIFYLVADSEEEMNKWVRCICDICGFNPTEEDPVKPPGSSLQAPADLPLAINTAPPSTQADSSSATLPPPYQLINVPPHLETLGIQEDPQDYLLLINCQSKKPEPTRTHADSAKSTSSETDCNDNVPSHKNPASSQSKHGMNGFFQQQMIYDSPPSRAPSASVDSSLYNLPRSYSHDVLPKVSPSSTEADGELYVFNTPSGTSSVETQMRHVSISYDIPPTPGNTYQIPRTFPEGTLGQTSKLDTIPDIPPPRPPKPHPAHDRSPVETCSIPRTASDTDSSYCIPTAGMSPSRSNTISTVDLNKLRKDASSQDCYDIPRAFPSDRSSSLEGFHNHFKVKNVLTVGSVSSEELDENYVPMNPNSPPRQHSSSFTEPIQEANYVPMTPGTFDFSSFGMQVPPPAHMGFRSSPKTPPRRPVPVADCEPPPVDRNLKPDRKGQSPKILRLKPHGLERTDSQTIGDFATRRKVKPAPLEIKPLPEWEELQAPVRSPITRSFARDSSRFPMSPRPDSVHSTTSSSDSHDSEENYVPMNPNLSSEDPNLFGSNSLDGGSSPMIKPKGDKQVEYLDLDLDSGKSTPPRKQKSSGSGSSVADERVDYVVVDQQKTLALKSTREAWTDGRQSTESETPAKSVK
binding [6]: binds
binding [5]: binds

B3: Grb2-associated binding protein 1 (Gab1), endogenous (protein, UniProt Q13480 1-694)
chain: MSGGEVVCSGWLRKSPPEKKLKRYAWKRRWFVLRSGRLTGDPDVLEYYKNDHAKKPIRIIDLNLCQQVDAGLTFNKKEFENSYIFDINTIDRIFYLVADSEEEMNKWVRCICDICGFNPTEEDPVKPPGSSLQAPADLPLAINTAPPSTQADSSSATLPPPYQLINVPPHLETLGIQEDPQDYLLLINCQSKKPEPTRTHADSAKSTSSETDCNDNVPSHKNPASSQSKHGMNGFFQQQMIYDSPPSRAPSASVDSSLYNLPRSYSHDVLPKVSPSSTEADGELYVFNTPSGTSSVETQMRHVSISYDIPPTPGNTYQIPRTFPEGTLGQTSKLDTIPDIPPPRPPKPHPAHDRSPVETCSIPRTASDTDSSYCIPTAGMSPSRSNTISTVDLNKLRKDASSQDCYDIPRAFPSDRSSSLEGFHNHFKVKNVLTVGSVSSEELDENYVPMNPNSPPRQHSSSFTEPIQEANYVPMTPGTFDFSSFGMQVPPPAHMGFRSSPKTPPRRPVPVADCEPPPVDRNLKPDRKVKPAPLEIKPLPEWEELQAPVRSPITRSFARDSSRFPMSPRPDSVHSTTSSSDSHDSEENYVPMNPNLSSEDPNLFGSNSLDGGSSPMIKPKGDKQVEYLDLDLDSGKSTPPRKQKSSGSGSSVADERVDYVVVDQQKTLALKSTREAWTDGRQSTESETPAKSVK
binding [7]: binds
